Measured values published in PubChem BioAssay AID624291 (National Center for Advancing Translational Sciences (NCATS), 2012).
In all, about 350,000 compounds went through this assay and about 220 (0.063%) were called active. This list was built around the results that the source calls inconclusive (neither active nor inactive); the mix of calls is not that of the screen. Calls come from the whole dose curve; as a rule, active = well fitted activation curve with a large enough effect; inconclusive = small, poorly fitted or top-dose-only effect; inactive = no such curve, though single readings can be large or run the other way. A potency beside an inconclusive call is a rough fit, not a confirmed value.

Experiment: qHTS for Activators of Integrin-Mediated Alleviation for Muscular Dystrophy; note: nearly all actives have a fitted effect of over 60% in size;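 for activation: 100% = response of the positive control SU9516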
Settings: alpha7betagal myoblasts, beta-gal FDG fluorescence, 48 h; activation: at 38.3 µM (top of the series)
Method in brief: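 Alpha7betagal+/- myoblasts (passage 13) were plated 16-24 hr, then exposed to compounds (1:260 dilution of DMSO stock) for 48 hours at 37C. After MPER lysis, β-galactosidase reporter activity was read as FDG fluorescence (ex 480/em 540) after 30 minutes.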
Potency is the fitted concentration of half-maximal effect.

Potency, inactive:
c1ccc(-n2ncc3c(NCCCN4CCOCC4)ncnc32)cc1
CCOC(=O)C1CCN(C(=O)CC(NS(=O)(=O)c2ccc(OC)cc2)C(C)C)CC1 (stereo not given)
O=c1nc(/C=C/c2ccccc2C(F)(F)F)cc(C(F)(F)F)[nH]1
O=C(N/N=C\c1ccccn1)c1cccc(C(=O)N/N=C\c2ccccn2)n1
Cc1[nH]nc2c1C(c1ccco1)C(C#N)=C(N)O2 (stereo not given)
O=C(NC(=S)Nc1ccc2cn[nH]c2c1)c1ccccc1
Cc1c(Cl)cnc(NC(=O)COC(=O)[C@H](C)NC(=O)c2ccccc2)c1Cl
Cc1nn(-c2ccccc2)c2sc(C(=O)NCCN3CCOCC3)cc12
C(=N\c1nc2ccccc2n1CCN1CCOCC1)/c1cccs1
CN(C)C(=O)CSc1cccc2cccnc12
C1=C(c2ccccc2)CCN(c2nc3ccccc3n3cnnc23)C1
COc1cc(/C=C(\CC(=O)O)c2nc3ccccc3s2)cc(OC)c1O
COc1ccccc1CCN1CCCC(CN(C)CC(C)(C)CO)C1 (stereo not given)
Cc1cc(NC(=O)c2ccc3c(c2)OCCO3)no1
Cc1cc(NC(=O)CC2CCCC2)n(-c2nc3ccccc3[nH]2)n1
CC(C)(C)c1ccc(-n2nc(C(N)=O)c(O)cc2=O)cc1
CC(C)[C@H](NC(=O)c1ccccc1)C(=O)NC1=NCCS1
CS/C(=N\S(=O)(=O)c1cccs1)Nc1ccc(F)c(Cl)c1
Oc1c(C=Nc2ccccc2)sc(=S)n1Cc1ccccc1
COc1cc(-c2nnc(COC(=O)c3nn(CC(C)C)c(=O)c4ccccc34)o2)cc(OC)c1OC
S=C1NC2=C(CCCC2=C2SCCS2)C(c2ccccc2)N1 (stereo not given)
OC1c2cc(Br)ccc2N=C2CCCN21 (stereo not given)
O=C(c1ccncc1)N(c1ccc2oc3c(c2c1)CCCC3)S(=O)(=O)c1ccc(F)cc1

Potency, inconclusive:
CCN(CC)CCNc1oc(-c2ccccc2)nc1S(=O)(=O)c1ccccc1 5.01 µM [activator, single point]
O=C(O)c1cc(-c2ccccc2Cl)n(-c2cccc(Cl)c2)n1 2.82 µM [activator, full curve]
ON/C=N/C(=S)Nc1ncc(C(F)(F)F)cc1Cl 0.501 µM [activator, full curve, poor fit]
O=C(C1CCC1)N1CCc2cc(S(=O)(=O)NCCCN3CCCCC3)ccc21 5.01 µM [activator, single point]
O=C(/C=C/c1cc([N+](=O)[O-])ccc1OC(F)F)Nc1ccc(OC(F)F)cc1 3.16 µM [activator, partial curve, poor fit]
COc1ccc(OCC(=O)N2CCN(C(=O)COc3ccc(Br)cc3)CC2)cc1 5.62 µM [activator, full curve, poor fit]
Cc1ccc(C(=O)C(C)OC(=O)CNC(=O)c2ccc(Br)o2)cc1 (stereo not given) 6.31 µM [activator, partial curve]
COc1nc(N)c(C#N)c(-c2ccc(N(C)CCC#N)cc2)c1C#N 31.6 µM [activator, partial curve, poor fit]
CCN(CC)CCN(Cc1cc2cc3c(cc2[nH]c1=O)OCO3)C(=S)NCc1ccco1 2.82 µM [activator, single point]
COc1ccc(C(=O)NC2CCCCCC2)cc1S(=O)(=O)N1CCOCC1 3.16 µM [activator, single point]
C=CCn1cc(C(=O)N2CCc3ccccc3C2)c(=O)c2cc(S(=O)(=O)N(CC)CC)ccc21 0.447 µM [activator, partial curve, poor fit]
Cc1ccccc1C(=O)Nc1nnc(CC(=O)N/N=C/c2cn(Cc3ccccc3)c3ccccc23)s1 5.01 µM [activator, single point]
CC(Oc1ccc2ccc(=O)oc2c1)C(=O)NC1CCN(Cc2ccccc2)CC1 (stereo not given) 31.6 µM [activator, single point]
O=C(COC(=O)C1=COCCO1)Nc1c(F)cccc1F 14.1 µM [activator, single point]
O=C(c1ccccc1)N1CCN(CC(O)COc2cccc3ccccc23)CC1 (stereo not given) 28.2 µM [activator, single point]
Cc1oc2ccc(OCc3ccccc3F)cc2c1C(=O)O 2.24 µM [activator, partial curve, poor fit]
CC(C)c1cc(O)c(-c2ccccc2)c(=O)n1-c1ccc(Cl)cc1 3.98 µM [activator, single point]
O=C(Nc1ccc(-c2nc3c(ccc4ccccc43)o2)cc1)c1ccco1 1 µM [activator, partial curve, poor fit]
COC(=O)C1C/C(=N\NS(=O)(=O)c2ccc(C)cc2)c2ccccc2C1 (stereo not given) 5.01 µM [activator, single point]
COc1ccccc1NC(=O)C(=O)NNS(=O)(=O)c1ccc2ccccc2c1 10 µM [activator, single point]
COc1cc2c(cc1OC)C(C)N(C(=O)Nc1ccccc1)CC2 (stereo not given) 10 µM [activator, single point]
O=C(Nc1nc2ccccc2[nH]1)c1ccc([N+](=O)[O-])cc1 28.2 µM [activator, partial curve, poor fit]
CCc1nnc(NC(=O)C2CCCN2S(=O)(=O)c2ccccc2)s1 (stereo not given) 3.16 µM [activator, full curve, poor fit]
O=C(CCOc1ccccc1)Nc1ccnn1C1CCN(Cc2ccc(O)cc2)CC1 2.82 µM [activator, single point]
N#Cc1ccccc1NC(=O)COc1ccc2c(c1)OCO2 28.2 µM [activator, single point]
Cc1cccc(NC(=O)c2ccc(COc3cccc4ccccc34)o2)n1 12.6 µM [activator, single point]
CCCOc1ccc(N/C=C/C(=O)c2cc(OC)c(OC)c(OC)c2)cc1 3.16 µM [activator, full curve]
COc1ccc(-c2noc(-c3ccc(Cl)cc3[N+](=O)[O-])n2)cc1OC 10 µM [activator, partial curve, poor fit]
CC(=O)NS(=O)(=O)c1ccc(N/C(N)=N/c2nc(C)cc(C)n2)cc1 20 µM [activator, single point]
COc1ccc(CNC(=O)c2ccc(Cn3cc(Br)cn3)o2)cc1 5.01 µM [activator, single point]
CCOC(=O)C1CCCN(CCC(=O)Nc2cc(C)cc(C)c2)C1 (stereo not given) 28.2 µM [activator, single point]
Nc1c(-c2ccccc2)cnn1-c1cccc(Cl)c1 28.2 µM [activator, partial curve, poor fit]
Cc1c(C)c2ccc(OCC(=O)NCCCn3ccnc3)c(C)c2oc1=O 1 µM [activator, full curve, poor fit]
CC(C)(C)NC(=S)N/N=C/c1c(Cl)cccc1Cl 2.51 µM [activator, full curve, poor fit]
Cc1ccc2c(c1)C1CN(C)CCC1N2S(=O)(=O)c1cc(C(F)(F)F)ccc1Cl (stereo not given) 0.891 µM [activator, full curve, poor fit]
COc1cccc(CCC(=O)N2CCC(n3nccc3NC(=O)CC(C)C)CC2)c1 2.82 µM [activator, single point]
Cc1ccc(Nc2cc(C)c3c(O)cccc3n2)cc1C 2.51 µM [activator, full curve, poor fit]
O=C(CN1CCN(c2ccccc2)CC1)Nc1c(C(=O)C2CC2)oc2ccccc12 11.2 µM [activator, partial curve]
Cn1nc(C(=O)NC2=NCCS2)ccc1=O 3.16 µM [activator, single point]
Cc1ccc(NC(=O)c2cc(NC(=O)/C=C\C(=O)O)ccc2N2CCCCC2)cc1 28.2 µM [activator, single point]
O=C(Cn1c(NCCO)nc2ccccc21)NCC1CCCO1 (stereo not given) 28.2 µM [activator, single point]
CC(=O)Nc1nc(C(=O)O)cs1 0.316 µM [activator, full curve, poor fit]
COc1ccc(N(C)S(=O)(=O)c2ccc(Cl)c(C(=O)NCCc3ccc(Cl)cc3)c2)cc1 4.47 µM [activator, single point]
CC1=C(C(=O)Nc2ccc(Cl)cc2C(=O)N2CCC(C(N)=O)CC2)SCCO1 3.98 µM [activator, single point]
CN(CC(=O)Nc1ccc(F)c(F)c1F)C(=O)C1=COCCO1 4.47 µM [activator, full curve, poor fit]

Arranged by heavy-atom count (smallest number first): three of the compounds above
Potency, inconclusive:
Nc1c(-c2ccccc2)cnn1-c1cccc(Cl)c1 28.2 µM [activator, partial curve, poor fit]
Cc1ccc(Nc2cc(C)c3c(O)cccc3n2)cc1C 2.51 µM [activator, full curve, poor fit]
Cc1ccc(NC(=O)c2cc(NC(=O)/C=C\C(=O)O)ccc2N2CCCCC2)cc1 28.2 µM [activator, single point]

Next part:

Potency, active:
CC(=O)Nc1ccc(N(C(=O)c2cnccn2)C(C(=O)NC2CCCCC2)c2ccc(F)cc2)cc1 (stereo not given) 11.2 µM

activation, inconclusive:
COc1cccc2sc(=NC(=O)CS(=O)(=O)c3ccc(Cl)cc3)n(C)c12 -58% [activator]
